About 5,500 (1.4%) of roughly 400,000 compounds were called active. The shares of active, inactive and inconclusive entries below differ from those in the screen. Calls come from the whole dose curve; as a rule, active = well fitted cell-killing curve with a large enough effect; inconclusive = small, poorly fitted or top-dose-only effect, or effect the other way; inactive = flat fitted curve, though single readings scatter. Potencies beside an inconclusive call are fits to weak or partial responses and may not hold up.
test: qHTS assay for MDR1-selective chemotherapeutics: Primary screen using the parental adenocarcinoma cell KB-3-1; conditions: KB-3-1 viability, CellTiter-Glo ATP luminescence, 72 h; activity change, negative = cytotoxic: at 46.1 µM (top of the series); note: nearly all actives have a fitted effect of over 60% in size
Method in brief: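 Viability of parental KB-3-1 cells, measured by CellTiter-Glo luminescence, followed a 72 h incubation at 37 °C with pinned compounds in phenol-red-free DMEM containing 10% FBS.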
% is set by controls: 0 for no effect and ±100 for the full control effect; potency is the fitted concentration of half-maximal effect.

SMILES	Potency	activity change, negative = cytotoxic
N#CC1c2ccccc2C=CN1C(=O)N(c1ccccc1)c1ccccc1 (stereo unspecified)	inconclusive: 29.1 µM [cytotoxic, single point]	–
CCc1c(C(=O)NC2CCCc3ccccc32)[nH]c(C)c1C(C)=O (stereo unspecified)	inconclusive: 8.2 µM [cytotoxic, partial curve]	–
Cc1ccccc1NC(=O)CSc1nc2ccccc2o1	inactive	–
O=C(c1cc(COc2ccc3ncccc3c2)on1)N1CCCCCC1	inconclusive: 10.3 µM [cytotoxic, partial curve, poor fit]	–
NC(=O)NC(CC(=O)OCC(=O)Nc1nnc(-c2ccccc2)o1)c1ccc(Cl)cc1 (stereo unspecified)	inactive	–
COc1ccc(S(=O)(=O)N(C)C)cc1NC(=O)COc1ccc2c(c1)CCC2	inconclusive: 0.82 µM [rising, full curve]	–
Cc1cc2nc(/C=C/c3cccnc3)[nH]c2cc1C	active: 1.16 µM	–
O=C(CSCc1ccc(Cl)cc1)N/N=C/c1ccccc1	inactive	–
CC(C)CC(COCc1ccc(C(F)(F)F)cc1)N1CCN(C(=O)c2ccc(C(F)(F)F)cc2)CCC1=O (stereo unspecified)	inconclusive: 29.1 µM [cytotoxic, single point]	–
CC(NC(=O)c1ccccc1OC(F)F)c1ccc(-n2ccnc2)cc1 (stereo unspecified)	inconclusive: 4.61 µM [cytotoxic, full curve, poor fit]	–
O=C(NCc1ccco1)C1CC(c2ccc(C(F)(F)F)cc2)=NO1 (stereo unspecified)	inconclusive: 23.1 µM [cytotoxic, single point]	–
CCN1CCN(Cc2ccc(NC(=O)c3ccc(C)c(NC(=O)c4cccc(-c5cn[nH]c(=O)c5)c4)c3)cc2C(F)(F)F)CC1	inconclusive: 20.6 µM [cytotoxic, single point]	–
N/C(=N\N=Cc1ccc2c(c1)OCO2)NN=Cc1ccc2c(c1)OCO2	inconclusive: 29.1 µM [cytotoxic, single point]	–
O=C(Oc1c(-c2ccccc2)c(=O)n2c3c(cccc13)CC2)c1ccc(Cl)cc1	inconclusive: 0.461 µM [rising, full curve, poor fit]	–
O=C(N/N=C/C=C\c1ccccc1[N+](=O)[O-])c1ccco1	inactive	–
Clc1ccc(-c2csc(N3CCOCC3)n2)cc1	inconclusive: 29.1 µM [rising, single point]	–
COc1ccc(NC(=O)CC(c2ccccc2)c2ccco2)cc1 (stereo unspecified)	inconclusive: 20.6 µM [cytotoxic, single point]	–
CC(Sc1ccccc1)C(=O)NN=C1CCCCCC1 (stereo unspecified)	inactive	–
Cc1ccc(OCC(=O)OCC(=O)NC2CCS(=O)(=O)C2)cc1C (stereo unspecified)	inactive	–
CCCc1n[nH]c2c1/C(=N\OCC)CC(C)(C)C2	inactive	–
c1ccc(OCc2nnc3ccc(-c4ccccc4)nn23)cc1	inactive	–
CC(C)COc1ccc(C(=O)Nc2scc(-c3ccc(Cl)cc3Cl)c2C(N)=O)cc1	active: 3.26 µM	–
COc1ccc(OC)c(C(c2nnnn2C2CCCC2)N2CCc3ccccc3C2)c1 (stereo unspecified)	inconclusive: 23.1 µM [cytotoxic, single point]	–

SMILES	Potency	activity change, negative = cytotoxic
CCOC(=O)C1=C(O)/C(=C/c2cn(CC(=O)N3CCCC3)c3ccccc23)SC1=Nc1ccccc1	active: 14.6 µM	–
CCc1ccc(C(C)NC(=S)NCc2ccc(F)cc2)cc1 (stereo unspecified)	inconclusive: 18.4 µM [cytotoxic, single point]	–
Cc1cccc(N2CCN(C(=O)c3cccn4c(=O)c5cc(Cl)ccc5nc34)CC2C)c1 (stereo unspecified)	inactive	–
CC(=O)c1c(N2CCN(Cc3ccccc3)CC2)nc(=S)n(Cc2ccccc2)c1C	inconclusive: 23.1 µM [cytotoxic, single point]	–
O=C(CSc1nnc(-c2cccc(Cl)c2)o1)N1CCc2ccccc21	inactive	–
OC[C@@H]1CN(Cc2ccc(-c3ccccc3)cc2)C[C@H](n2cnc3c(NCc4ccc(F)cc4)ncnc32)O1	inconclusive: 29.1 µM [cytotoxic, single point]	–
O=C(CCCN1C(=O)/C(=C/c2ccccc2Cl)SC1=S)NNC(=O)c1ccncc1	–	inconclusive: 34.5%
COc1ccc([N+](=O)[O-])cc1NC(=O)c1ccco1	inconclusive: 25.9 µM [cytotoxic, single point]	–
Cc1n[nH]c(C)c1CS(=O)(=O)c1ccccc1	–	inconclusive: 0%
CCN(CC)S(=O)(=O)c1cccc(C(=O)N/N=C(\C)c2cccs2)c1	inconclusive: 0.517 µM [cytotoxic, full curve, poor fit]	–
COc1cc(C(=O)NCc2nnc(SCC(=O)N3CCCCCC3)o2)cc(OC)c1OC	inactive	–
CC(C)(C)NC(=O)CC1C[C@H](C(=O)N2CCCCC2)[C@@]2(C)c3[nH]c4ccccc4c3CCN2C1=O (stereo partly specified)	inactive	–
c1nc(NCCN2CCOCC2)c2c3c(sc2n1)CCCCC3	inactive	–
Cc1cccc(NC(=S)N2CCN(c3cc(C)ccc3C)CC2)c1	inactive	–
Cc1cc(C)n(-c2cc(N3CCN(C(=O)c4ccc(C(C)(C)C)cc4)CC3)ccc2[N+](=O)[O-])n1	inconclusive: 20.6 µM [cytotoxic, single point]	–
COc1cc(C2c3cc4c(cc3OC(N3CCOCC3)C2C)OCO4)cc(OC)c1OC(C)=O (stereo unspecified)	inconclusive: 18.4 µM [cytotoxic, single point]	–
COc1ccc(/C=N/NC(=O)CCc2nc3ccccc3[nH]2)cc1	inconclusive: 11.6 µM [rising, partial curve]	–
O=C(c1ccc(Cl)cc1)N1CCC(c2ccncc2)CC1	inconclusive: 8.2 µM [cytotoxic, partial curve]	–
Cn1c(SCC(=O)N/N=C/c2ccc([N+](=O)[O-])s2)nnc1-c1ccc(Cl)cc1	inconclusive: 25.9 µM [cytotoxic, partial curve, poor fit]	–
COc1cc(C(=O)N2CCCCC2c2cc(C(=O)NC(C)C)no2)cc(OC)c1C (stereo unspecified)	inactive	–
CN(Cc1cnn(C)c1)Cc1nc(-c2ccc(Cl)cc2)no1	inconclusive: 23.1 µM [cytotoxic, partial curve, poor fit]	–
O=Cc1c(NC2CCCCC2)c2ccccc2[nH]c1=O	inactive	–
O=C(O)c1ccc(/C=C2/SC(=S)N(Cc3ccccc3)C2=O)cc1	–	inconclusive: 10.9%

Four entries from above, with each value named.
COc1cc(C2c3cc4c(cc3OC(N3CCOCC3)C2C)OCO4)cc(OC)c1OC(C)=O (stereo unspecified)
  Potency: inconclusive: 18.4 µM [cytotoxic, single point]
COc1ccc(/C=N/NC(=O)CCc2nc3ccccc3[nH]2)cc1
  Potency: inconclusive: 11.6 µM [rising, partial curve]
O=C(c1ccc(Cl)cc1)N1CCC(c2ccncc2)CC1
  Potency: inconclusive: 8.2 µM [cytotoxic, partial curve]
Cn1c(SCC(=O)N/N=C/c2ccc([N+](=O)[O-])s2)nnc1-c1ccc(Cl)cc1
  Potency: inconclusive: 25.9 µM [cytotoxic, partial curve, poor fit]

— PubChem BioAssay AID1347075 (National Center for Advancing Translational Sciences (NCATS), 2019)
